{"source": "patent US20170367338A1", "about": "“COMPOSITIONS AND METHODS FOR IMPROVING AGRONOMIC CHARACTERISTICS OF PLANTS” (MONSANTO TECHNOLOGY LLC, priority 2014, published 2017)", "origin": "cited, not measured here", "note": "Some of these results come from one statement about several compounds together.", "data": [{"test_system": "a variety of cell lines", "conditions": "reportedly; cited from earlier work", "units": {"dose capable of inducing apoptosis": "µM"}, "values": [{"compound": "CC[C@@]1(O)C(=O)OCc2c1cc1n(c2=O)Cc2cc3ccccc3nc2-1", "note": "[camptothecin]", "dose capable of inducing apoptosis": "≤ 1"}, {"compound": "CC(=O)O[C@H]1C(=O)[C@@]2(C)[C@H]([C@H](OC(=O)c3ccccc3)[C@]3(O)C[C@H](OC(=O)[C@H](O)[C@@H](NC(=O)c4ccccc4)c4ccccc4)C(C)=C1C3(C)C)[C@]1(OC(C)=O)CO[C@@H]1C[C@@H]2O", "note": "[paclitaxel]", "dose capable of inducing apoptosis": "≤ 1"}, {"compound": "CN[C@@H]1C[C@H]2O[C@@](C)([C@@H]1OC)n1c3ccccc3c3c4c(c5c6ccccc6n2c5c31)C(=O)NC4", "note": "[staurosporine]", "dose capable of inducing apoptosis": "≤ 1"}]}]}
